Results on 1 substance are retold here after US11753440 (dated 2023).

The data set is described as follows: peptide synthesis. Particulars: whole synthesis, UPLC.

*: point of attachment. Pbf = Cc1c(C)c(S(=O)(=O)*)c(C)c2c1OC(C)(C)C2; Boc = CC(C)(C)OC(=O)*

Regarding Boc-Y(Et)R(Pbf)AF-OH, the “crude HPLC purity” value was found to be 92%.
